Experimental data taken from PubChem BioAssay AID540256 (National Center for Advancing Translational Sciences (NCATS), 2011).
Screen size: about 300,000 compounds; about 3,700 (1.2%) were called active. The shares of active, inactive and inconclusive entries below differ from those in the screen. Calls come from the whole dose curve; tested in HEK293 cells. Potencies beside an inconclusive call are fits to weak or partial responses and may not hold up.

assay: qHTS for Inhibitors of binding or entry into cells for Lassa Virus; settings: Lassa virus pseudotype entry inhibition, cell reporter; activity change, negative = inhibition: at 37.9 µM (top of the series) unless noted; note: nearly all actives have a fitted effect of over 50% in size
% is set by controls: 0 for no effect and ±100 for the full control effect; potency is the fitted concentration of half-maximal effect.

Question: Which Potency does the source give for `COc1ccc(N2CCN(c3cc(C)c4ccccc4n3)CC2)cc1` here?
Answer: inconclusive: 1.58 µM [inhibitor, partial curve, poor fit]

Question: Which Potency does the source give for `Cc1cccc(Cn2c(CNS(=O)(=O)c3ccc(Cl)s3)nc3cccnc32)c1` here?
Answer: inconclusive: 7.08 µM [inhibitor, single point]

Question: For `COc1ccc(/C=N/NC2=NS(=O)(=O)c3ccccc32)cc1OC(C)=O`, which “activity change, negative = inhibition” value is on record?
Answer: inactive: 3.42%

Question: With `CCc1cccc2c(C(=O)COC(=O)/C=C/c3ccc(O)c(OC)c3)c[nH]c12` as the compound, how does the Potency read?
Answer: inconclusive: 35.5 µM [inhibitor, single point]

Question: With `CCN1C(=O)N[C@@H](c2cccc(C(F)(F)F)c2)[C@H](C(C)=O)[C@H]1C` as the compound, how does the Potency read?
Answer: inconclusive: 0.0042 µM [inhibitor, full curve, poor fit]

Question: With `Brc1ccc(Oc2ncc(CN3CCN(c4ccccc4)CC3)s2)cc1` as the compound, how does the Potency read?
Answer: inconclusive: 12.6 µM [inhibitor, partial curve, poor fit]

Question: Which Potency does the source give for `CN(/N=C\c1ccc(O)c(O)c1)c1nc(-c2ccccc2)cc(-c2ccccc2)n1` here?
Answer: inconclusive: 23.1 µM [inhibitor, single point]

Question: For `Cc1nn(Cc2ccccc2Cl)c(C)c1NC(=O)C1C2CCC(O2)C1C(=O)O` (stereo not given), which Potency is on record?
Answer: inconclusive: 11.2 µM [inhibitor, partial curve, poor fit]

Question: Which Potency does the source give for `Cc1ccc(-n2ncc(C(=O)NCc3cccs3)c2C2CCN(C(=O)OC(C)(C)C)CC2)cc1C` here?
Answer: inconclusive: 15.8 µM [inhibitor, single point]

Question: For `Cc1ccc(S(=O)(=O)N2CCCN(S(=O)(=O)c3ccc4ccccc4c3)CC2)cc1`, which Potency is on record?
Answer: inconclusive: 29.1 µM [inhibitor, single point]

Question: For `Cc1cccc(C2N3CC4(C(C)C)CN2CC(C(C)C)(C3)C4=O)c1` (stereo not given), which Potency is on record?
Answer: inconclusive: 7.08 µM [activator, partial curve, poor fit]

Question: For `Cc1ccc(C(=O)c2oc3ccccc3c2NC(=O)c2nc(S(C)(=O)=O)ncc2Cl)cc1F`, which “activity change, negative = inhibition” value is on record?
Answer: inactive: -2.52% [at 46.1 µM]

Question: With `COc1c(C)cc(C(=O)C2CCCN(C(=O)c3cccc(F)c3)C2)cc1C` (stereo not given) as the compound, how does the Potency read?
Answer: inconclusive: 10 µM [inhibitor, partial curve, poor fit]

Question: For `Nc1ncnc2c1c(-c1ccc(Oc3ccccc3)cc1)cn2C1CCCC1`, which Potency is on record?
Answer: inconclusive: 0.651 µM [inhibitor, partial curve, poor fit]

Question: For `COc1ccccc1OCC(=O)N/N=C1/C=C(C)CC1`, which Potency is on record?
Answer: inconclusive: 20 µM [inhibitor, single point]

Question: Which Potency does the source give for `COc1ccc(NC(=O)CSc2ccc(-c3sc(C)nc3C)nn2)cc1` here?
Answer: inconclusive: 20 µM [inhibitor, partial curve, poor fit]

Question: For `O=C1CC(N2CCN(c3ccccc3)CC2)C(=O)N1CCc1ccccc1` (stereo not given), which Potency is on record?
Answer: inconclusive: 23.1 µM [inhibitor, single point]

Question: Which Potency does the source give for `CC(NC(=O)C12CC3CC(CC(C3)C1)C2)C(=O)NN=Cc1ccc([N+](=O)[O-])o1` (stereo not given) here?
Answer: inconclusive: 10 µM [inhibitor, partial curve, poor fit]

Question: With `CC(C)Oc1ccc(CCc2n[nH]c(=S)n2Cc2ccccc2)cc1` as the compound, how does the Potency read?
Answer: inconclusive: 1.64 µM [inhibitor, partial curve, poor fit]

Question: With `Cc1cccc(-c2noc(CN(C(=O)c3ccc(C)c(C)c3)C(C)C)n2)c1` as the compound, how does the Potency read?
Answer: inconclusive: 17.8 µM [inhibitor, single point]

Question: Which “activity change, negative = inhibition” value does the source give for `O=C(/C=C/c1ccco1)N1CCC(Cc2ccccc2)CC1` here?
Answer: inactive: 9.55%

Question: Which “activity change, negative = inhibition” value does the source give for `O=C1CC(C(=O)Nc2ccc(F)cc2)n2cnnc2N1` (stereo not given) here?
Answer: inactive: -9.55%

Question: Which “activity change, negative = inhibition” value does the source give for `CS(=O)(=O)N1N=C(c2ccc(Cl)cc2)CC1c1cccs1` (stereo not given) here?
Answer: inactive: -2.98%

Question: With `COC(=O)C1C2c3ccccc3C(c3ccccc32)C1C(=O)OC` (stereo not given) as the compound, how does the Potency read?
Answer: inconclusive: 17.8 µM [inhibitor, partial curve, poor fit]

Question: With `CSc1ccccc1NC(=O)CN1CCN(S(=O)(=O)c2ccccc2[N+](=O)[O-])CC1` as the compound, how does the Potency read?
Answer: inconclusive: 35.5 µM [inhibitor, single point]

Question: Which Potency does the source give for `Cc1ccc(NS(=O)(=O)c2cccc(C(=O)N3CCCCCCC3)c2)cc1` here?
Answer: inconclusive: 12.6 µM [inhibitor, partial curve, poor fit]

Question: For `COc1ccccc1Nc1nc(-c2cccs2)cs1`, which Potency is on record?
Answer: inconclusive: 6.51 µM [activator, single point]

Question: Which Potency does the source give for `CC(=O)c1ccc(-c2nnc(CCC(=O)N(C)Cc3c(C)nc4ccccn34)o2)s1` here?
Answer: inconclusive: 2.82 µM [inhibitor, full curve, poor fit]

Question: With `CCCC1S/C(=N/N=C/c2cccs2)NC1=O` (stereo not given) as the compound, how does the “activity change, negative = inhibition” value read?
Answer: inactive: -6.05%

Question: Which Potency does the source give for `O=C(CN(C(=O)CCC(=O)Nc1ccccn1)c1ccc2c(c1)OCCO2)NCCc1ccccc1` here?
Answer: inconclusive: 1.26 µM [inhibitor, full curve]

Question: Which Potency does the source give for `C[C@@H]1NC(=O)/C(=C\c2ccccc2Br)NC1=O` here?
Answer: inconclusive: 6.31 µM [inhibitor, single point]

Question: With `Cc1ccc(OCC(=O)Nc2ccc(Cl)cc2C(=O)c2ccccc2)cc1C` as the compound, how does the Potency read?
Answer: inconclusive: 8.91 µM [activator, partial curve, poor fit]

Question: For `Cc1cccc(NC(=S)N/N=C/C(C)c2ccccc2)c1C` (stereo not given), which Potency is on record?
Answer: inconclusive: 17.8 µM [inhibitor, single point]

Question: For `O=C(O)CCC(=O)N1CCN(c2nc3ccccc3s2)CC1`, which “activity change, negative = inhibition” value is on record?
Answer: inactive: 21.9%

Question: With `Cc1cccc(C)c1NS(=O)(=O)c1ccc(OCCNS(C)(=O)=O)cc1` as the compound, how does the Potency read?
Answer: inconclusive: 3.16 µM [inhibitor, full curve, poor fit]

Question: With `O=C1C(C=NCC2CCCO2)=C(O)c2ccccc21` (stereo not given) as the compound, how does the Potency read?
Answer: inconclusive: 5.8 µM [activator, full curve]

Question: Which “activity change, negative = inhibition” value does the source give for `Cc1cc(N2CCN(C)CC2)nc(N2CCOCC2)n1` here?
Answer: inactive: 4.36%

Question: With `CS(=O)(=O)N(Cc1ccccc1)c1ccc(C(=O)NCC2CCCO2)cc1` (stereo not given) as the compound, how does the Potency read?
Answer: inconclusive: 18.3 µM [inhibitor, partial curve, poor fit]

Question: With `COc1ccccc1NC(=O)N(Cc1ccco1)C1CCN(C(C)=O)CC1` as the compound, how does the Potency read?
Answer: inconclusive: 2.51 µM [inhibitor, full curve, poor fit]

Question: Which “activity change, negative = inhibition” value does the source give for `O=C(c1nc(-c2ccc(Cl)cc2)n2c1CCCCC2)N1CCN(c2ccc(F)cc2)CC1` here?
Answer: inactive: -12.3% [at 46.1 µM]

Question: With `O=[N+]([O-])c1cccc(S(=O)(=O)NCc2ccncc2)c1` as the compound, how does the “activity change, negative = inhibition” value read?
Answer: inactive: -12%

Question: With `CN(c1ccccc1)S(=O)(=O)c1ccc(NC(=O)c2ccccc2)cc1` as the compound, how does the Potency read?
Answer: inconclusive: 29.1 µM [inhibitor, single point]

Question: With `CC[n+]1c(/C=C/C=C/c2ccc(N(C)C)cc2)sc2ccccc21` as the compound, how does the Potency read?
Answer: inconclusive: 2.51 µM [inhibitor, full curve, poor fit]

Question: Which Potency does the source give for `O=S(=O)(c1ccccc1)c1nc(-c2ccc(F)cc2)oc1N1CCOCC1` here?
Answer: inconclusive: 11.2 µM [inhibitor, partial curve, poor fit]

Question: For `CN(C)c1ccc(/C=N/NC(=O)c2ccccc2O)o1`, which “activity change, negative = inhibition” value is on record?
Answer: inactive: 3.56%

Question: Which Potency does the source give for `Cc1ccc(NC(=S)Nc2cccc(S(=O)(=O)Nc3c(C)n(C)n(-c4ccccc4)c3=O)c2)cc1` here?
Answer: inconclusive: 31.6 µM [inhibitor, single point]

Question: For `COc1ccc(NC(=O)CC2C(=O)NCCN2C(=O)c2ccc(N(C)C)cc2)cc1` (stereo not given), which Potency is on record?
Answer: inconclusive: 1.12 µM [inhibitor, single point]

Question: Which Potency does the source give for `O=C(C1CCC1)N1CCN(c2cccc(C(F)(F)F)c2)CC1` here?
Answer: inconclusive: 35.5 µM [inhibitor, single point]

Question: For `CCOc1ccc(CCNC(=O)CSc2cc(=O)n(C)c3ccccc23)cc1OCC`, which Potency is on record?
Answer: inconclusive: 35.5 µM [inhibitor, single point]

Question: For `O=C(c1ccc(Cl)c(S(=O)(=O)Nc2ccc(F)cc2)c1)N1CCN(c2ccccn2)CC1`, which Potency is on record?
Answer: inconclusive: 18.3 µM [inhibitor, single point]

Question: For `O=C(C1CCN(S(=O)(=O)c2cccnc2)CC1)N1CCN(C2CCCC2)CC1`, which “activity change, negative = inhibition” value is on record?
Answer: inactive: 0.141%

Question: For `COc1cccc(NC(=O)c2cnsn2)c1`, which Potency is on record?
Answer: inconclusive: 4.61 µM [activator, single point]

Question: For `CCCn1c(SCC(=O)Nc2ccc(Cl)cc2)n[nH]c1=O`, which “activity change, negative = inhibition” value is on record?
Answer: inactive: -14.4%

Question: With `COC(=O)/C=C1/S/C(=N/NC(=O)c2ccc(OC)cc2)NC1=O` as the compound, how does the Potency read?
Answer: inconclusive: 2.51 µM [activator, full curve]

Question: Which Potency does the source give for `O=C(Nc1ccccc1)C1CC(=O)n2ncnc2N1` (stereo not given) here?
Answer: inconclusive: 0.92 µM [inhibitor, full curve, poor fit]

Question: Which Potency does the source give for `CCOc1ccc(-c2cc(CCCC(=O)Nc3cccc(OC)c3)no2)cc1` here?
Answer: active: 0.82 µM

Question: For `CN(C)CCCN(C(=O)c1ccc(S(=O)(=O)N2CCCCCC2)cc1)c1nc2cc3c(cc2s1)OCCO3`, which Potency is on record?
Answer: active: 14.1 µM

Question: For `CC1CCCCN1CCNC(=O)c1ccc2c(=O)n(CCc3ccccc3)c(=O)[nH]c2c1` (stereo not given), which Potency is on record?
Answer: inconclusive: 18.3 µM [inhibitor, single point]

Question: For `CCc1ccccc1OCC(=O)Nc1ccc(N2CCCC2)cc1C`, which “activity change, negative = inhibition” value is on record?
Answer: inactive: 5.17%

Question: Which Potency does the source give for `Cc1cccc2c(CC(=O)Nc3ccccc3)noc12` here?
Answer: inconclusive: 28.2 µM [activator, partial curve, poor fit]

Question: Which Potency does the source give for `N/C(=N\OC(=O)c1cc(Br)ccc1Cl)c1ccccn1` here?
Answer: inconclusive: 17.8 µM [inhibitor, single point]

Question: For `Cn1nnnc1SCC(=O)c1ccc2c(c1)OCCO2`, which “activity change, negative = inhibition” value is on record?
Answer: inactive: 22.1%

Question: Which Potency does the source give for `CCOc1ccc(N2CC(C(=O)Nc3ccccc3N3CCCC3)CC2=O)cc1` (stereo not given) here?
Answer: inconclusive: 7.94 µM [inhibitor, partial curve, poor fit]

Question: For `COC(=O)c1ccccc1NC1=C/C(=N\S(=O)(=O)c2ccc(C(=O)O)cc2)c2ccccc2C1=O`, which Potency is on record?
Answer: inconclusive: 17.8 µM [inhibitor, single point]

Question: Which “activity change, negative = inhibition” value does the source give for `CC1=C(C)CC(C(=O)NCC(=O)c2ccccc2)C(C(=O)O)C1` (stereo not given) here?
Answer: inactive: 13.3%
